Test: Odour description

Row | Structure (SMILES) | Odour description
1 | CC1CCC(CC=O)C1(C)C (centres unmarked) [2-(2,2,3-trimethylcyclopentyl)acetaldehyde] | fruity, sweet, anise
2 | CC(CO)C1CC1C1CCC(C)C1(C)C (centres unmarked) [2-[2-(2,2,3-trimethylcyclopentyl)cyclopropyl]propan-1-ol] | cedarwood, sandalwood, creamy
3 | CCC(C=CC1CC2CC2(C)C1(C)C)CO (centres unmarked) [2-ethyl-4-(1,2,2-trimethyl-3-bicyclo[3.1.0]hexanyl)but-3-en-1-ol] | sandalwood, woody, green, fruity
4 | CCC(CO)C1CC1C1CC2CC2(C)C1(C)C (centres unmarked) [Compound 3a, 2-[2-(1,2,2-trimethyl-3-bicyclo[3.1.0]hexanyl)cyclopropyl]butan-1-ol] | sandal, cedarwood, floral, fruity, creamy, soft, green
5 | CC(CO)C1CC1C1CC2CC2(C)C1(C)C (centres unmarked) [Compound 3b, 2-[2-(1,2,2-trimethyl-3-bicyclo[3.1.0]hexanyl)cyclo-propyl]propan-1-ol] | green, floral, fruity, woody, creamy, sandal
